According to the supplement of paper PMC4635364:
Counter-ions that a name gives are not always drawn. The list shows a part of the results. This data set is noisy: repeats of one test often differ as much as different tests do.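 Human fetal ventral-midbrain neural progenitor line ReNCell VM, differentiated without mitogens. Images stained for doublecortin (early neurons) or tyrosine hydroxylase (dopaminergic neurons) were scored by blinded raters against untreated wells (0 = no change). Repeats and both raters were averaged, and compounds averaging 2 or higher were picked as hits for retesting.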

Test system: ReNCell VM
Assay: dopaminergic neuron differentiation score (TH+ cell fraction vs untreated, manual image score) (score (0 to 3)); higher = more TH+ dopaminergic neuron differentiation
Details: library: Phytochemical; 2 uM; 4 weeks; BDNF 10 ng/ml + GDNF 10 ng/ml

SMILES | dopaminergic neuron differentiation score
CNC(=O)Oc1ccc2c(c1)[C@]1(C)CC[N+](C)([O-])[C@@H]1N2C (some centres not stated) [Geneserine] | inactive: 0
CN1C2CC(=O)CC1C(O)C2 (configuration not stated) [6-Hydroxytropinone] | inactive: 0
CC1=C2[C@H]3OC(=O)[C@@H](C)[C@@H]3CC[C@@]2(C)C=CC1=O [alpha-Santonin] | inactive: 0
CC[C@H]1C[C@@H]2CN3CCc4c([nH]c5ccccc45)[C@](C(=O)OC)(C2)[C@H]13 [Coronaridine] | inactive: 0

Same assay, conditions: library: Spectrum; 2 uM; 4 weeks; BDNF 10 ng/ml + GDNF 10 ng/ml

SMILES | dopaminergic neuron differentiation score
CCN(C(C)=O)c1cccc(-c2ccnc3c(C#N)cnn23)c1 | inactive: 0
O=[N+]([O-])C(Br)(CO)CO | inactive: 0
C=C(C)[C@@H]1[C@H]2OC(=O)[C@@H]1[C@]1(O)C[C@H]3O[C@]34C(=O)O[C@H]2[C@]14C | inactive: 0
CCC(C)(C)O | inactive: 0
CC[C@@H](C(=O)[C@@H](C)[C@@H](O)[C@H](C)[C@@H]1O[C@@H]([C@@H](CC)C(=O)O)CC[C@@H]1C)[C@H]1O[C@]2(C=C[C@@H](O)[C@]3(CC[C@@](C)([C@H]4CC[C@](O)(CC)[C@H](C)O4)O3)O2)[C@H](C)C[C@@H]1C | inactive: 0
COc1cc2c(cc1OC)[C@@H]1C(=O)c3ccc4oc(C(C)C)cc4c3O[C@@H]1CO2 | inactive: 0
CC(C)c1ccc2c(c1O)CC[C@H]1C3=C(CC[C@]21C)C(=O)OC3 | inactive: 0
CC(C)c1c(CN(C)C(C)Cc2ccccc2)n(C)n(-c2ccccc2)c1=O (configuration not stated) | inactive: 0
CN1[C@H]2C[C@H](OC(=O)[C@H](CO)c3ccccc3)C[C@@H]1[C@@H](O)C2 | inactive: 0
C[C@]12CCC(=O)C=C1C=C[C@@H]1[C@@H]2CC[C@@]2(C)[C@H]1CC[C@@]2(O)CCC(=O)O | inactive: 0
CC(=O)CC1CCCCN1 (configuration not stated) | inactive: 0
O=[N+]([O-])c1ccc([As](=O)(O)O)cc1 | inactive: 0
C=C(C)[C@H]1Cc2c(ccc3c(=O)c4c(oc23)COc2cc(OC)c(OC)cc2-4)O1 | inactive: 0
C[C@H]1O[C@@H](O[C@H]2[C@@H](O)C[C@H](O[C@H]3[C@@H](O)C[C@H](O[C@H]4CC[C@@]5(C)[C@H](CC[C@@H]6[C@@H]5CC[C@]5(C)[C@@H](C7=CC(=O)OC7)[C@@H](O)C[C@]65O)C4)O[C@@H]3C)O[C@@H]2C)C[C@H](O)[C@@H]1O | inactive: 0
CN1C[C@H](C(=O)N[C@]2(C)O[C@@]3(O)[C@@H]4CCCN4C(=O)[C@H](Cc4ccccc4)N3C2=O)C[C@@H]2c3cccc4[nH]cc(c34)C[C@H]21 | inactive: 0
COc1cccc(C2(O)CCCCC2CN(C)C)c1 (configuration not stated) | inactive: 0
CC[N+]1(C)CCCC(OC(=O)C(O)(c2ccccc2)c2ccccc2)C1 (configuration not stated) | inactive: 1
CC1=C2C(=CO[C@H](C)[C@H]2C)C(O)=C(C(=O)O)C1=O | inactive: 0
CC(=O)OCC1=C(C(=O)O)N2C(=O)[C@@H](N)[C@H]2SC1 | inactive: 0

Reprinted at random: 2 entries already listed.
SMILES | dopaminergic neuron differentiation score
C[C@H]1O[C@@H](O[C@H]2[C@@H](O)C[C@H](O[C@H]3[C@@H](O)C[C@H](O[C@H]4CC[C@@]5(C)[C@H](CC[C@@H]6[C@@H]5CC[C@]5(C)[C@@H](C7=CC(=O)OC7)[C@@H](O)C[C@]65O)C4)O[C@@H]3C)O[C@@H]2C)C[C@H](O)[C@@H]1O | inactive: 0
CN1C[C@H](C(=O)N[C@]2(C)O[C@@]3(O)[C@@H]4CCCN4C(=O)[C@H](Cc4ccccc4)N3C2=O)C[C@@H]2c3cccc4[nH]cc(c34)C[C@H]21 | inactive: 0

Same assay, conditions: library: Tocriscreen; 2 uM; 4 weeks; BDNF 10 ng/ml + GDNF 10 ng/ml

SMILES | dopaminergic neuron differentiation score
CN1CC[C@@H]2CN3CCc4cccc(c43)[C@@H]2C1 [SDZ SER 082 fumarate] | inactive: 0
NC1(c2ccccc2Cl)CCCCC1=O (configuration not stated) [Norketamine hydrochloride] | inactive: 0
Ic1cncc(OC[C@@H]2CCN2)c1 | inactive: 0
CC(C)(Cc1c[nH]c2ccc(Cl)cc12)NCCOc1ccccc1OCC1CC1 | inactive: 0
N#Cc1ccc(N2CCN(C(=O)COc3ccc4[nH]cc(CCN)c4c3)CC2)cc1 [Donitriptan hydrochloride] | inactive: 0
COc1cc2c(cc1O)C(CCc1ccc(Cl)cc1)N(C)CC2 (configuration not stated) | inactive: 0
Cc1[nH]c2ccc(Cl)cc2c1C1=CCNCC1 | inactive: 0
O=C(O)C1=CCCN(CCOC(c2ccc(C(F)(F)F)cc2)c2ccc(C(F)(F)F)cc2)C1 [CI 966 hydrochloride] | inactive: 0
CN1[C@@H]2CC[C@H]1CC(OC(=O)N1Cc3ccccc3NC1=O)C2 (some centres not stated) [DAU 5884 hydrochloride] | inactive: 0
